# Percent effect of library compounds

Protein sequences, listed by entry. Tags and fused reporters are not part of them. Residues count along the entry.
UniProt P9WNZ1, whole entry: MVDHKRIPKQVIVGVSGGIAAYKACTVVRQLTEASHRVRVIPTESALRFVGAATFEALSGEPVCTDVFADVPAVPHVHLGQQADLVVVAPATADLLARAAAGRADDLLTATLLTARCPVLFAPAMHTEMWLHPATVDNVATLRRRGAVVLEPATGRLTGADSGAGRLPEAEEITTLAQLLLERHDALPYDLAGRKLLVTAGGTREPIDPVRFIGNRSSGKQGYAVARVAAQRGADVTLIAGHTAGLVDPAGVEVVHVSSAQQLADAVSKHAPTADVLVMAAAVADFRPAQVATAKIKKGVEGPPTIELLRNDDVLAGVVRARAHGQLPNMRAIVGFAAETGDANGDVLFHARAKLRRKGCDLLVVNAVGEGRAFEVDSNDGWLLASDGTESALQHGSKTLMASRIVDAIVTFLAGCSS
UniProt A4I591, 1-473: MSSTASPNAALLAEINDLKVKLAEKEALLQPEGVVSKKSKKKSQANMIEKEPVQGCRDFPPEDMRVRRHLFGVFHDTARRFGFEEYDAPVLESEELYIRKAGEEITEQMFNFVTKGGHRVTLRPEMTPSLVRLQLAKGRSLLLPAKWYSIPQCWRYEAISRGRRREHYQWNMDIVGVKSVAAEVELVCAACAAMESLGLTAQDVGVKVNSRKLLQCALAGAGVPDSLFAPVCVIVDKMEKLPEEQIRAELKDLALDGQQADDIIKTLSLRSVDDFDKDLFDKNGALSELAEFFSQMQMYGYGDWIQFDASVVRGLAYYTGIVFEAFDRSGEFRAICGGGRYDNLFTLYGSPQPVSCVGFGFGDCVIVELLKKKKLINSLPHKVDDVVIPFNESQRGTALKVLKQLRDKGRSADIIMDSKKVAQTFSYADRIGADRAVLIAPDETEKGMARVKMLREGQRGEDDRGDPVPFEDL

The values are deposited in ChEMBL (CHEMBL3988442, “University of Dundee, Small-Polar-MMV Screening Library” (2021)).

CoaBC: 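Enzyme assay of CoaBC with a phosphate dye (Biomol Green) read at 650 nm. Target: Coenzyme A biosynthesis protein CoaBC, Mycobacterium tuberculosis (UniProt P9WNZ1). Tested at 30 µM. Direction is inferred from only a few compounds that gave an IC50; most scored high, so higher reads as stronger inhibition. Most strong results did not repeat in a second test. Of about 67,000 compounds tested this way, about 40 (0.06%) reached 50% or more in at least one test.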
LiHisRS: 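Histidine-tRNA ligase, Leishmania infantum (UniProt A4I591). Enzyme assay of histidyl-tRNA synthetase; the read-out is not stated. Concentration: 30 µM. Direction is inferred from retests: higher values go with stronger inhibition. The assay is labelled LdHisRS but filed under L. infantum. Of about 69,000 compounds tested this way, about 410 (0.6%) reached 50% or more in at least one test.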
Leishmania in macrophages: 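Cell assay of Leishmania donovani living inside macrophages; the read-out is not stated. Concentration: 30 µM. The record gives no direction; compounds that gave an IC50 in retests scored well above the rest, so higher reads as stronger inhibition. About 69,000 compounds were tested under these conditions; 1.5% (about 1,000) showed 50% or more at least once.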

The filed quantity is “Percent Effect” (%). The record does not define 0% and 100%; most values in the screen are far below 50% and negative numbers occur (in some assays of this library far below -100). This is an unselected part of the compounds tested. Two or more numbers in one place are separate tests of the same structure; such repeats can differ widely. A dash means the value is not listed here; it may have been measured.

structure,CoaBC,LiHisRS,Leishmania in macrophages
CC(C(=O)NCCCN1CCCCCC1=O)n1cncn1 (centres unmarked),6.177,19.7,-8.726
O=C(c1cccs1)N1CCc2ncnc(C3CCOC3)c2CC1 (centres unmarked),4.079,7,11.32
Cc1oncc1NS(=O)(=O)c1c[nH]c2ncccc12,-1.606,13.43,15.31
CN1CCCN(c2nccc(-c3c[nH]c4ccc(Br)cc34)n2)CC1,7.831,5.714,20.14 & 45.74
Cn1ncc2c(=O)[nH]c(N3CCCC3c3cccc(Cl)c3)nc21 (centres unmarked),7.54,13.39,16.76
CC(CCc1ncnn1Cc1cccc(Cl)c1)N1CCCC1 (centres unmarked),6.918,26.55,-1.841
CCOc1ccc(NC(=O)c2scnc2CC)cc1CO,-,-4.225,-6.177
O=C(NCc1ccc(F)cc1F)C(c1cccnc1)N1CCOCC1 (centres unmarked),-2.82,12.5,39.19
CCn1c(NCC2CCCO2)nc2c(C)nn(C)c2c1=O (centres unmarked),14.32,17.24,3.16
CN(C)C(=O)[C@H]1C[C@H]2OCC[C@H]2N(Cc2ccc3ccccc3n2)C1,-1.75,14,-
[H][C@@]12CN(S(=O)(=O)c3ccccc3)C[C@@]1([H])N(CC1CC1)C(=O)CO2,-,-,-6.127
Cc1cc(-c2n[nH]c3c2CN(S(=O)(=O)c2ccsc2)CC3)c(C)o1,4.054,27.91,8.117
c1ccc2nc(N3CCCC3c3nnc4n3CCCCC4)cnc2c1 (centres unmarked),7.264,23.91,3.486
COC(=O)c1ccc(OC)c(OC23CCCN(CC2)C3)c1 (centres unmarked),-0.4819,25.27,-2.222
CC(C)CCN1CCc2nc(N3CCOCC3)nc(NC(C)C)c2C1,5.315,33,26.84
Cc1ccc(CNC(CCO)C2CCCCC2)nc1 (centres unmarked),1.946,0,25.33
NC(=O)C1CCCN(Cc2c(-c3ccco3)[nH]c3ncccc23)C1 (centres unmarked),2.778,55.56,33.29
Cc1oncc1C(=O)N1CC2CC1(C(=O)N(C)C)C2,3.732,-42.31,4.72
CC(C)c1nnc(CN2CCC3(CC2)Nc2ccccc2NC3=O)o1,-1.691,5.051,15.61
O=S(=O)(Nc1cn[nH]c1)c1ccc(Br)c(F)c1,-8.871,14.04,21.77
Cc1cnn(CC(C)NCc2c(C)nn(Cc3ccccc3)c2C)c1 (centres unmarked),6.399,10.17,19.47
Cc1occc1C(=O)N1CCCn2cnc(CN3CCCC3=O)c2C1,0.9877,11.11,1.546
[H][C@@]12CN(C(=O)N(C)C)C[C@]1([H])C(=O)NC21CCN(C(=O)CC(C)C)CC1,-,-,2.17
O=C(CCN1CCOC(C(F)(F)F)C1)NCc1ccc(Cl)cc1 (centres unmarked),-2.991,18.8,-22.38
CCOCC1CN(C(=O)c2ccncn2)Cc2cnn(C)c21.O=C(O)C(F)(F)F (centres unmarked),-,-,1.289
[H][C@@]12CCN(C(=O)Cc3ccc(O)cc3)C[C@]1([H])[C@@H](c1ccccc1)CN2C,-,-,5.953
OC(CN1CCCc2cc(OC(F)F)ccc21)Cn1cccn1 (centres unmarked),0.8696,10.99,3.687
O=C(NCc1nnc2n1CCCC2)c1ccc(C2CCCO2)s1 (centres unmarked),3.236,5.882,-10.11
[H][C@]12CC[C@]([H])(CN(Cc3ccccc3OC(F)F)C1)N(CC1CC1)C2=O,-,-,25.98
CC(C)CN1CCS(=O)(=O)[C@@H]2CCN(S(=O)(=O)N(C)C)CC[C@@H]21,4.017,14.04,-
CCCc1cncnc1N1CCCC2(CCC(=O)N(C3CCCC3)C2)C1 (centres unmarked),7.297,14.75,13.93
Cc1ccc(-c2cc(N)c(=O)n(CC(=O)NC3CCCC3)n2)s1,4.337,18,-8.475
CN(Cc1noc(-c2ccccc2)n1)C(=O)CSc1nnc(N)s1,3.883,10.59,-28.18
O=C(NCc1nn(-c2ccccc2)c2c1CCC2)N1CCCC(O)C1 (centres unmarked),2.302,20.18,20.57
O=C(Cc1ccc2c(c1)OCO2)N1CCCN(c2nccs2)CC1,4.634,11.2,45.19
CCOCC1CN(C(=O)COc2ccccc2C)Cc2ncn(C)c21.O=C(O)C(F)(F)F (centres unmarked),-,-,7.946
CCN1CC2(CCN(C(=O)c3nc4cc(C)ccn4c3F)CC2)CC1=O,1.316,11.48,-21.64
C[S+]([O-])c1cccc(NC(=O)N(CCC#N)Cc2ccccn2)c1 (centres unmarked),11.35,6.897,-9.319
O=C(O)C(F)(F)F.[H][C@@]12OCCN(C(=O)c3ccccc3C)[C@@]1([H])CC[C@H]2OCCN(C)C,-,-,-1.11
CN1CCN(Cc2ccncc2)Cc2cccnc21,2.637,10.09,9.162
[H][C@@]12CS(=O)(=O)C[C@]1([H])N(C(=O)Cc1ccc(O)c(F)c1)CCN2CC1CC1,-,-,-5.239
CC(C)CC(C)N(C)C(=O)c1nc(S(C)(=O)=O)n2ccccc12 (centres unmarked),2.368,10.19,1.411
COc1ccc2c(c1)CN(c1cc(N3CCCC3CO)ncn1)CC2 (centres unmarked),4.104,13.22,11.17
[H][C@@]12CS(=O)(=O)C[C@]1([H])N(C(=O)Nc1ccccc1C)CCN2C(=O)C1CC1,-,-,-13.53
CN(C)C(=O)C1CCN(Cn2nc(-c3ccc(F)cc3)oc2=O)CC1,5.806,5.217,-5.064
OC(COCc1ccco1)CSc1nnc2ccccn12 (centres unmarked),0.369,8.065,29.48
CCCC1C=CCN1C(=O)c1cc(COc2ccccc2)[nH]n1 (centres unmarked),8.395,13.99,-20.27
CC(CC#N)N(C)Cc1ccc(F)cc1C#N (centres unmarked),14.1,6.838,-17.11
O=C(NCc1nnc2n1CCC2)N(Cc1ccco1)C1CC1,1.919,21.15,23.11
Cc1ccc(-c2nnc(CN3CCc4cnc(C)nc4C3)o2)cc1,8.432,40,20.73
Cc1nc(COC[C@@]23CCC[C@@H]2CN(Cc2cnn(C)c2)C3)cs1,-0.2475,2.703,-
COC(=O)N1CCCN(C(=O)NCc2ccc(Cl)s2)CC1,2.089,24.32,9.976
O=C(Cc1cccc(F)c1)NCCNS(=O)(=O)C1CCCC1,1.205,16.48,5.008
CC(=O)N(C)Cc1ccccc1NC(=O)N(C)CCc1cccs1,2.913,12.05,1.747
CCOCC1CN(c2ccncn2)Cc2cnn(CC3CC3)c21.O=C(O)C(F)(F)F.O=C(O)C(F)(F)F (centres unmarked),-,-,39.19
CCN(CC)C(=O)CSc1sc2c(O)cc(=O)[nH]c2c1C(N)=O,5.949,7.5,-53.19

The last 3 entries again:

For CC(=O)N(C)Cc1ccccc1NC(=O)N(C)CCc1cccs1 the result was CoaBC: 2.913%; LiHisRS: 12.05%; Leishmania in macrophages: 1.747%.
For CCOCC1CN(c2ccncn2)Cc2cnn(CC3CC3)c21.O=C(O)C(F)(F)F.O=C(O)C(F)(F)F (centres unmarked) the result was Leishmania in macrophages: 39.19%.
For CCN(CC)C(=O)CSc1sc2c(O)cc(=O)[nH]c2c1C(N)=O the result was CoaBC: 5.949%; LiHisRS: 7.5%; Leishmania in macrophages: -53.19%.